Literature values in patent US20230149603A1, “DRUG-RELEASING POLYMER COMPOSITION AND DEVICE” (Novaflux Inc., priority 2021, published 2023).
At least one structure is not confirmed: it was looked up by name or label, or the drawing left a doubt.

Key:
S. Epidermidis = settings: averaged between the high and low of the MIC; cited from earlier work
A. Baumanii = settings: averaged between the high and low of the MIC; cited from earlier work

**Q.** What does the source list for `CN(C)c1ccc(O)c2c1C[C@H]1C[C@H]3[C@H](N(C)C)C(O)=C(C(N)=O)C(=O)[C@@]3(O)C(O)=C1C2=O` [Minocycline]?
**A.** MIC (S. Epidermidis): 2 micrograms per ml; MIC (A. Baumanii): 2.25 micrograms per ml
